Results are given in words; binding and its absence hold for the method and conditions named. Some entries that bind do so weakly or less than the wild type.
How the values were obtained:
[1] = molecular target: T1, sorcin protein (UniProt P30626); assay: yeast two-hybrid, BCMP84 as bait
T1 sequence (looked up): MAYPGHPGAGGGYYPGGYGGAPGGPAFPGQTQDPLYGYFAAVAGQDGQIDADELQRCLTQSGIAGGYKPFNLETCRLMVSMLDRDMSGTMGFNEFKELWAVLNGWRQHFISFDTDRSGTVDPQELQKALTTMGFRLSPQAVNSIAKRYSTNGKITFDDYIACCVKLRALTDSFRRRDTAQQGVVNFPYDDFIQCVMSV

[2] = molecular target: T2, Nucleobindin 1 (UniProt Q02818); assay: yeast two-hybrid, BCMP84 as bait
T2 sequence (looked up): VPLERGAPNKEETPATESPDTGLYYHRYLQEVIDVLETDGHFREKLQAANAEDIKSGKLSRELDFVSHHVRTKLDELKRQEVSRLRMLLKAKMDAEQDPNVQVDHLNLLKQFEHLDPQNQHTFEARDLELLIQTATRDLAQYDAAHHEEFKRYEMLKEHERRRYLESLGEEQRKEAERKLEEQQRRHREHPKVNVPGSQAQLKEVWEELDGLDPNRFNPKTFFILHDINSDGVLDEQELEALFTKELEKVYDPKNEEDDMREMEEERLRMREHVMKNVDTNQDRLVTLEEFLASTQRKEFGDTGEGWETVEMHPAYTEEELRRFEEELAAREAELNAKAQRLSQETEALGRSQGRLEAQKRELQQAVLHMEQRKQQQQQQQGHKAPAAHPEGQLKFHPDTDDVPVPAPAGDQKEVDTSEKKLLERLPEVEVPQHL

B1: BCMP84 bait (yeast two-hybrid) (protein)
chain: MGQCRSANAEDAQEFSDVERAIETLIKNFHQYSVEGGKETLTPSELRDLVTQQLPHLMPSNCGLEEKIANLGSCNNSKLEFGSFWELIGEAAKSVKLERPVRGH
[1]
  binding: binds
[2]
  binding: binds

— patent US20040053830A1
